# From patent US9567623B2, “Coelenterazine analogs” (JNC CORPORATION, priority 2013, dated 2017)
# The chains behind the UniProt entries cited, without tags or fusion partners. A line that says so, or that is headed by a name, gives the form on record, which may keep a tag or linker.
# UniProt Q9GV45, other isoform, or with tags, fused parts or gaps with the stated changes: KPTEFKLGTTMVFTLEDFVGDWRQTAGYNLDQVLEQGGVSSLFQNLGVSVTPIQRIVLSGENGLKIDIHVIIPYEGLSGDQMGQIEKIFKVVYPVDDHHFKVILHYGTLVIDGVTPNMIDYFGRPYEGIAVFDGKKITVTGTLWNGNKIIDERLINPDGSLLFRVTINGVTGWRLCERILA
# Some results were stated once for a whole list of compounds, not compound by compound. At least one compound was matched to its structure with a doubt left.
# Target: T1, nanoKAZ (mutated catalytic 19 kDa domain of Oplophorus luciferase) (Oplophorus gracilirostris, UniProt Q9GV45, A31E/A60N/A81I/F95D/I117V/K70R/L54V/L99Q/M102K/N193R/P142E/Q151K/Q38R/Q45L/V71I/Y165I)
# T1 construct: secretory signal peptide of Gaussia luciferase (GLsp) (N, cleaved yes); made in house; host or cells: CHO-K1 transiently transfected with pcDNA3-GLsp-nanoKAZ; unpurified culture medium used as the enzyme solution
# Assay: Luminescence activity of secreted codon-optimized nanoKAZ domain protein with coelenterazine analogs as substrates
# Format: biochemical
# Conditions: relative to coelenterazine = 1.0; for Relative maximum luminescence intensity (Imax): 1 μg substrate, 50 mM Tris-HCl (pH 7.6)-10 mM EDTA, 60 seconds; for Relative amount of integrated luminescence intensity (1 min.): integrated for 60 seconds
# Method: The Chinese hamster ovary-derived cell line CHO-K1 was cultured in Ham's F-12 medium (manufactured by Wako Pure Chemical Industries, Ltd.) containing 10% (v/v) calf fetal serum (manufactured by Biowest Inc.), and cultured in DMEM (manufactured by Wako Pure Chemical Industries, Ltd.) containing 10% (v/v) calf fetal serum (manufactured by Biowest Inc.). The respective cells were seeded in a 6-well culture plate (n=2) with 1×10^5 cells/well/2 mL medium, and cultured in an incubator at 37° C. in 5% CO2, respectively. After 24 hours, the purified pcDNA3-GLsp-nanoKAZ plasmid was transfected into CHO-K1 cells using a FuGene HD Transfection Kit (manufactured by Promega Corp.), which was used in the subsequent experiment. Specifically, 1 μg of the pcDNA3-GLsp-nanoKAZ expression vector and 3 μL of FuGene HD were added to 100 μL of medium, which was allowed to stand at room temperature for 15 minutes. Then 100 μL of the DNA-FuGene complex solution was added to the cells in the 6 wells. After incubation for 48 hours, the culture medium was recovered and used as the secreted nanoKAZ enzyme solution for assay.
# The enzyme solution, 5 μL, for assay obtained in EXAMPLE 4 (2) was added to 100 pt of 50 mM Tris-HCl (pH 7.6)-10 mM EDTA (Wako Pure Chemical Industries) containing 1 μg each of various coelenterazine analogs to initiate the luminescence reaction. The luminescence activity was determined by a luminometer (AB2200, manufactured by Atto Company) for 60 seconds and expressed by the maximum luminescence intensity (Imax) and the relative light units (du) of the lumimescence intensity integrated for 60 seconds.
# The coelenterazine analogs used for substrate specificity analysis except for the analog described in EXAMPLE 1 were synthesized by the methods as described in the journals below, respectively. Specifically, bis-coelenterazine was synthesized by the method described in Nakamura et al. (1997) Tetrahedron Lett. 38: 6405-6406; Furimazine (Compound No. 3939 referred to in the journal) and C6d-coelenterazine (Compound No. 3840 referred to in the journal) by the method described in Hall et al. (2012) ACS Chem. Biol. […]; and the C2-coelenterazine analogs by the method described in Inouye et al (2010) Anal. Biochem. 407: 247-252. The enzyme solution of the culture medium in which nanoKAZ was secreted by the method as described in EXAMPLE 4 (2) was used for determining the luminescence activity with coelenterazine or its analogs. […] As a result, the luminescence substrates which can markedly improve the luminescence intensity and the amount of the integrated luminescence intensity to compare with furimazine are bis-coelenterazine and C6d-f-coelenterazine, showing a continuous luminescence without a decay of the luminescence intensity.
compound,measurement,setting,value
"O=c1c(Cc2ccc(F)cc2)nc2c(Cc3ccccc3)[nH]c(-c3ccccc3)cn1-2 [C6d-f-Coelenterazine, C6d-f-coelenterazine]",Relative maximum luminescence intensity (Imax),listed as C6d-f-coelenterazine,≥ 5
same,Relative amount of integrated luminescence intensity (1 min.),listed as C6d-f-coelenterazine,≥ 5
O=c1c(Cc2ccc(F)cc2)nc2c(Cc3ccccc3)[nH]c(-c3ccc(O)cc3)cn1-2 [f-Coelenterazine],Relative amount of integrated luminescence intensity (1 min.),listed as f-coelenterazine,≥ 5
Oc1ccc(-c2cn3c(O)c(Cc4ccccc4)nc3c(Cc3ccccc3)n2)cc1 [h-Coelenterazine],Relative maximum luminescence intensity (Imax),listed as h-coelenterazine,≥ 5
same,Relative amount of integrated luminescence intensity (1 min.),listed as h-coelenterazine,≥ 5
bis-coelenterazine,Relative maximum luminescence intensity (Imax),listed as bis-coelenterazine,≥ 5
